Reference: PubChem BioAssay AID1745850 (National Center for Advancing Translational Sciences (NCATS), 2022)
Screen size: about 2,100 compounds; about 260 (12%) were called active. This list was built around the results that the source calls inconclusive (neither active nor inactive); the mix of calls is not that of the screen. The call rests on the fitted dose curve; in most records, active means well fitted cell-killing curve with a large enough effect; inconclusive means small, poorly fitted or top-dose-only effect, or effect the other way; inactive means flat fitted curve, though single readings scatter. Potencies of inconclusive entries are doubtful fits and often do not repeat.

test: Viability Counterscreen for Confirmatory qHTS for Inhibitors of ATXN expression; conditions: HEK-293 ATXN2-luc cells viability, CellTiter-Fluor, 24 h; activity change, negative = cytotoxicity: at 11.5 µM (top of the series) unless noted; further: nearly all actives have a fitted effect of over 50% in size
How it was run: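 Luminescence read-out (SteadyGlo, 5 min) followed a 30 min Gly-Phe-AFC (25 uM final) viability fluorescence read. ATXN2-luciferase reporter cells were exposed 24 h to a dilution series. Medium-only wells served as the 100% inhibition reference.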
Potency means the concentration at half of the fitted maximal effect.

Row | SMILES | activity change, negative = cytotoxicity | Potency
1 | CC1CCN(C(=O)c2cc3nc(-c4ccccc4)cc(-c4ccccc4)n3n2)CC1 | inactive: -2.33% | –
2 | Cc1ccc(C(NC(=O)C2CCN(Cc3ccc(Cl)c(Cl)c3)CC2)c2ccccn2)cc1 (configuration not stated) | – | inconclusive: 22.4 µM [cytotoxic, partial curve]
3 | O=C(CN1CCCc2ccccc21)N/N=C/c1ccccc1O | inactive: -21.2% | –
4 | CC(OC(=O)c1cc(Br)ccc1O)C(=O)Nc1ccc(S(=O)(=O)N2CCCC2)cc1 (configuration not stated) | – | inconclusive: 31.6 µM [cytotoxic, single point]
5 | Cc1ccc(-c2cc(C(=O)N/N=C/c3ccccc3O)n[nH]2)o1 | – | inconclusive: 14.1 µM [cytotoxic, partial curve, poor fit]
6 | COc1cc(C=CC(=O)c2ccccc2)cc(OC)c1OC | – | inconclusive: 39.8 µM [cytotoxic, single point]
7 | O=[N+]([O-])c1nn(-c2ccccc2)n(O)c1=NC1CCN(Cc2ccccc2)CC1 | – | inconclusive: 3.16 µM [cytotoxic, single point]
8 | CCOC(=O)c1c(-c2ccccc2)oc2ccc(OCC(=O)NN)cc12 | inactive: -25.4% [at 57.5 µM] | –
9 | Fc1ccc2[nH]c3c(N4CCSCC4)ncnc3c2c1 | – | active: 25.1 µM
10 | O=C(NCc1cc(C(F)(F)F)ccc1Cl)c1cccc2c1C(=O)c1ccc(N3CCC(N4CCCCC4)CC3)cc1S2(=O)=O | – | inconclusive: 39.8 µM [cytotoxic, single point]
11 | CN(C)CCNC(=O)c1cccc2[nH]c(-c3ccncc3)nc12 | – | inconclusive: 3.16 µM [cytotoxic, single point]
12 | CCc1nc2ccccc2c(C(=O)OCC(=O)Nc2cccc(S(=O)(=O)NC3=NCCCCC3)c2)c1C | – | active: 25.1 µM
13 | NS(=O)(=O)c1ccc(Sc2nc3ccccc3s2)c([N+](=O)[O-])c1 | – | inconclusive: 3.16 µM [cytotoxic, partial curve, poor fit]
14 | Cc1cc(C)c(C(O)c2ncc(-c3cccc4ccccc34)[nH]2)c(C)c1 (configuration not stated) | inactive: -7.41% | –
15 | Cc1cccc(OCCCC(=O)Nc2nccs2)c1 | inactive: 1.34% | –
16 | Cc1ccc2c(Cl)cc(Cl)c(O)c2n1 | – | inconclusive: 10 µM [cytotoxic, partial curve, poor fit]
17 | CCN(CC(=O)NC(C)(C)C)Cc1nc2c(Br)cc(Br)cc2c(=O)[nH]1 | – | inconclusive: 39.8 µM [cytotoxic, partial curve, poor fit]
18 | Cn1c(CO)cnc1S(=O)(=O)Cc1ccc([N+](=O)[O-])cc1 | inactive: -12.7% [at 57.5 µM] | –
19 | COc1cccc2c1C(=O)C=C(C)C2=O | – | inconclusive: 39.8 µM [cytotoxic, single point]
20 | O=C(/C=C/Nc1ccc(S(=O)(=O)Nc2ncccn2)cc1)c1ccc(Cl)c(Cl)c1 | inactive: -21.3% [at 57.5 µM] | –
21 | CC(NC(=O)Nc1cccc([N+](=O)[O-])c1)(C(F)(F)F)C(F)(F)F | inactive: -28.5% [at 57.5 µM] | –
22 | Cc1ccc(C)c(NC(=O)CSc2n[nH]c(-c3ccccn3)n2)c1 | – | inconclusive: 39.8 µM [cytotoxic, single point]
23 | COc1ccc([C@@]2(C(C)C)ON(c3ccccc3C(F)(F)F)C2=O)cc1 | inactive: -9.94% | –
24 | O=C(NCCc1csc(-c2cccnc2)n1)c1cccc(Cl)c1 | inactive: -18.1% [at 57.5 µM] | –

Two entries drawn at random from those above:
Row | SMILES | activity change, negative = cytotoxicity | Potency
24 | O=C(NCCc1csc(-c2cccnc2)n1)c1cccc(Cl)c1 | inactive: -18.1% [at 57.5 µM] | –
17 | CCN(CC(=O)NC(C)(C)C)Cc1nc2c(Br)cc(Br)cc2c(=O)[nH]1 | – | inconclusive: 39.8 µM [cytotoxic, partial curve, poor fit]

(more compounds)

Row | SMILES | activity change, negative = cytotoxicity | Potency
25 | Cc1ccc(-c2ccc(/C=N/c3ncn[nH]3)o2)cc1Cl | inactive: -16.1% | –
26 | CCOC(=O)c1c(-n2cccc2)sc2c1CCCC2=O | inactive: -20% [at 57.5 µM] | –
27 | CCn1c(C)cc(C(=O)COC(=O)c2ccccc2[N+](=O)[O-])c1C | inactive: -10.5% [at 57.5 µM] | –
28 | CCN1CCN(c2cc(C(C)C)nc3c(-c4ccccc4)c(C)nn23)CC1 | – | inconclusive: 25.1 µM [cytotoxic, partial curve]
29 | Oc1ccccc1C(Nc1nccs1)c1ccc2cccnc2c1O (configuration not stated) | – | inconclusive: 11.2 µM [cytotoxic, partial curve]
30 | CCCCn1c(N)c(S(=O)(=O)c2ccc(C)cc2)c2nc3ccccc3nc21 | – | inconclusive: 7.08 µM [cytotoxic, single point]
31 | CCn1cc(C(=O)NCCCN2CCCC(C)C2)c(=O)c2cc(S(=O)(=O)N3CCc4ccccc4C3)ccc21 (configuration not stated) | – | inconclusive: 39.8 µM [cytotoxic, single point]
32 | CN(CC(=O)Nc1cccc(F)c1)CC(=O)Nc1cccc2ccccc12 | inactive: -16.6% [at 57.5 µM] | –
33 | Cc1ccc(Cc2cnc(NC(=O)/C(C#N)=C/c3ccc(-c4cccc([N+](=O)[O-])c4)o3)s2)cc1 | – | active: 22.4 µM
34 | Cc1cc(C(=O)N/N=C/c2cc(Br)cc([N+](=O)[O-])c2O)c2ccccc2n1 | – | inconclusive: 3.55 µM [cytotoxic, single point]
35 | Cn1ncc2c(N3CCN(c4ccc(Cl)c(Cl)c4)CC3)ncnc21 | – | inconclusive: 12.6 µM [cytotoxic, partial curve]
36 | C=CCc1cccc(/C=N/NC(=O)CCC(=O)Nc2ccc(F)cc2)c1O | – | inconclusive: 7.94 µM [cytotoxic, partial curve]
37 | CN(CCOc1ccc(Br)cc1)CC(O)COc1ccc(C#N)cc1 (configuration not stated) | inactive: -16.9% [at 57.5 µM] | –
38 | CCOC(=O)c1cnc(-n2nc(C)cc2C)nc1NNc1nc(-c2ccccc2)cc(-c2ccccc2)n1 | – | inconclusive: 14.1 µM [cytotoxic, partial curve]
39 | Nc1nc(NCCCN2CCOCC2)nc(Nc2cccc(Cl)c2)c1[N+](=O)[O-] | inactive: -23% | –
40 | Cc1cccc(C2CC(c3ccccc3)=NN2c2ccc(S(N)(=O)=O)cc2)c1 (configuration not stated) | – | inconclusive: 39.8 µM [cytotoxic, single point]
41 | Cc1ccc(NC(=O)CSc2ccc(Br)cc2)cc1S(=O)(=O)N1CCOCC1 | inactive: -29.7% [at 57.5 µM] | –
42 | COC(=O)c1sc(NC(=O)c2ccc(OC)cc2OC)nc1C | inactive: -11.6% [at 57.5 µM] | –
43 | CC(=O)c1cccc(NC(=O)C2Cc3c(-c4cccc(C(C)=O)c4)ccnc3O2)c1 (configuration not stated) | – | inconclusive: 4.47 µM [cytotoxic, single point]
44 | COc1ccc(S(=O)(=O)N(C)C)cc1NC(=O)C1CCN(c2ncnc3sc(C)c(C)c23)CC1 | – | inconclusive: 39.8 µM [cytotoxic, single point]
45 | CCN1CCN(C2=C(NS(=O)(=O)c3ccc(C)cc3)C(=O)c3ccccc3C2=O)CC1 | – | inconclusive: 3.16 µM [cytotoxic, single point]
46 | CCc1nnc(NC(=O)c2ccc(S(=O)(=O)N(C)c3ccccc3)cc2)o1 | inactive: -10.3% | –
47 | Cc1ccc2nc(NC(=O)/C=C/c3ccc4c(c3)OCO4)sc2c1 | – | inconclusive: 8.91 µM [cytotoxic, partial curve]
48 | Cc1nc(N)nc(N)c1/C=C/C(C)(C)c1ccc(Cl)cc1 | – | inconclusive: 35.5 µM [cytotoxic, single point]

Row | SMILES | activity change, negative = cytotoxicity | Potency
49 | CCn1cc(Cl)c(C(=O)N2N=C(c3ccc4ccccc4c3)CC2c2ccccc2O)n1 (configuration not stated) | – | inconclusive: 39.8 µM [cytotoxic, single point]
50 | O=C1/C(=C/c2ccncc2)CCC/C1=C\c1ccncc1 | – | active: 10 µM
51 | CCn1c(C)nc2cc(C(=O)N/N=C/c3cccc(OC)c3O)ccc21 | inactive: -17.1% | –
52 | O=C(Nc1ccc(Oc2ccc(NC(=O)Nc3ccc([N+](=O)[O-])cc3)cc2)cc1)Nc1ccc([N+](=O)[O-])cc1 | – | inconclusive: 10 µM [cytotoxic, partial curve]
53 | O=C(NCc1ccccc1Cl)C1CCCN(C(=O)Nc2ccc(F)cc2)C1 (configuration not stated) | inactive: -23% [at 57.5 µM] | –
54 | COC1C=CC=C(C)C(=O)NC2=CC(=O)C(N)=C(CC(C)CC(OC)C(O)C(C)C=C(C)C1OC(N)=O)C2=O (configuration not stated) | – | inconclusive: 0.355 µM [cytotoxic, full curve, poor fit]
55 | CCn1c2ccccc2c2cc(/C=N/NC(=O)c3ccccc3)ccc21 | – | inconclusive: 7.94 µM [cytotoxic, partial curve]
56 | COc1ccc(Br)cc1C(=O)Nc1ccccc1N1CCN(C(=O)c2ccccc2)CC1 | inactive: -13.6% | –
57 | COc1ccccc1-n1c(-c2ccccc2)c[n+]2c1CCc1ccccc1-2 | – | inconclusive: 11.2 µM [cytotoxic, partial curve]
58 | Cc1nn(-c2ccccn2)c2c1C(=O)CC(C)(C)C2N=[N+]=[N-] (configuration not stated) | inactive: -2.41% | –
59 | Cc1cc(C)n(CCC(=O)N/N=C/c2ccc(O)cc2O)n1 | inactive: -14.6% | –
60 | O=[N+]([O-])c1c(Nc2ccccn2)cc(Cl)c2nonc12 | – | active: 11.2 µM
61 | O=C(Nc1ccc(SC(F)F)cc1)c1cc(-c2ccncc2)nc2ccccc12 | – | inconclusive: 3.55 µM [cytotoxic, partial curve, poor fit]
62 | CCOC(=O)c1ccc2ncc(C(=O)OCC)c(Nc3ccc(N4CCOCC4)cc3)c2c1 | – | active: 3.16 µM
63 | O=C(Cc1ccccc1)N/N=C/c1cc(Br)cc(Br)c1O | inactive: 1.64% | –
64 | N#Cc1ccc(-c2nc3cc(Cl)ccc3c(=O)n2O)cc1 | inactive: -15.2% | –
65 | CC1CCCCC1NC(=O)/C(C#N)=C/C=C/c1ccccc1[N+](=O)[O-] (configuration not stated) | – | active: 2.82 µM
66 | CCOC(=O)COc1ccc(Br)cc1/C=C/c1[nH]c(=O)[nH]c(=O)c1[N+](=O)[O-] | inactive: -26.2% | –
67 | CC(=O)Nc1cccc(-c2ccnc3c2CC(C)(C(=O)Nc2ccc(Cl)cc2)O3)c1 (configuration not stated) | – | inconclusive: 15.8 µM [cytotoxic, partial curve]
68 | CN1Cc2c(N3CCOCC3)nc3sc(C(=O)c4ccccc4)c(N)c3c2CC1(C)C | inactive: -21% | –
69 | CN(C(=O)c1cnc(N2CCN(c3ncccn3)CC2)c2ccccc12)c1ccc(Cl)cc1 | – | inconclusive: 35.5 µM [cytotoxic, single point]
70 | O=C(Nc1ccc([N+](=O)[O-])cc1)Nc1ccc(Cl)cc1F | – | inconclusive: 3.98 µM [cytotoxic, single point]
71 | CCOC(=O)C1CCN(C(=O)c2c(C)oc3c2C(=O)c2ccccc2C3=O)CC1 | – | active: 25.1 µM
72 | O=c1cc(Nc2ccc3c(c2)OCCO3)[nH]c(=O)n1-c1ccc(Br)cc1 | – | inconclusive: 39.8 µM [cytotoxic, single point]
